Reference: patent publication US20230030032A1 (AGGAMIN, published 2023)
Results are given in words; binding and its absence hold for the method and conditions named. Some binding calls cover weakened binding; strength is not graded here.

Legend:
[1] = target: T1, endogenous sEng in pooled serum of pre-eclampsia patients (human) (UniProt P17813); assay: column depletion from pooled pre-eclampsia serum, 0.8 mg antibody/ml beads
T1 sequence (looked up): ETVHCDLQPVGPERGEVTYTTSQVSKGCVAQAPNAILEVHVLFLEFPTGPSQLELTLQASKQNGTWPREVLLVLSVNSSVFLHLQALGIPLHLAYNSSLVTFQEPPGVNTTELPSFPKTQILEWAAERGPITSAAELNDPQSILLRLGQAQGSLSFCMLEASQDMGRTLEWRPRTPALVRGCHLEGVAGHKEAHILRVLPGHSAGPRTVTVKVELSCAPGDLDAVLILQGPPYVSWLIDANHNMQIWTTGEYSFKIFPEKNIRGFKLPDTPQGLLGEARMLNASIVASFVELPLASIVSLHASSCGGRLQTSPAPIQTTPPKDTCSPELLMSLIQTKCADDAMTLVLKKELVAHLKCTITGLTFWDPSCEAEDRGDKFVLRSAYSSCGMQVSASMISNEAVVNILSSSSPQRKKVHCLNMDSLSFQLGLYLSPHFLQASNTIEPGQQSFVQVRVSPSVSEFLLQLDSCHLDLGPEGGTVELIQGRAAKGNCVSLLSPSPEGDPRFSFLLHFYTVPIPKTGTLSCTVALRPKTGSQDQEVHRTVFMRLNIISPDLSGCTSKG

[2] = target: T2, soluble Endoglin (sEng), recombinant, as spiked or purified protein (human) (UniProt P17813); assay: 1 ml column, 0.2 mg cENG10/ml beads, 60 ng/ml sEng in horse serum, linear flow rates varied
T2 sequence (looked up): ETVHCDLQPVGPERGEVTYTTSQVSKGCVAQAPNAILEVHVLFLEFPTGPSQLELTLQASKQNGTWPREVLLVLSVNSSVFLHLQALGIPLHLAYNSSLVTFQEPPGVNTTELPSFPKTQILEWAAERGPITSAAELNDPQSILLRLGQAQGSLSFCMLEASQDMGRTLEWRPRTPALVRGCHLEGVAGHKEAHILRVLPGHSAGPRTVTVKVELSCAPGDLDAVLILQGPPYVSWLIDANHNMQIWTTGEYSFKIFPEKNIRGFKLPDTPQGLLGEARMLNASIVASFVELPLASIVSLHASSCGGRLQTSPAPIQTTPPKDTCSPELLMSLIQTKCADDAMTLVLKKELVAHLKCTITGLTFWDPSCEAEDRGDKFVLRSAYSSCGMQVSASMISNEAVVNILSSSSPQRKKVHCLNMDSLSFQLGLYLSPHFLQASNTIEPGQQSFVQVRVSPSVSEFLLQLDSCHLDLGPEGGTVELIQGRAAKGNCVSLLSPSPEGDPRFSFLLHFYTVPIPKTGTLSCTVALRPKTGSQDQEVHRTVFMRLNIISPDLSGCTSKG

[3] = target: T2, soluble Endoglin (sEng), recombinant, as spiked or purified protein (human); assay: depletion of sEng spiked in horse serum by a 1 ml column of antibody covalently coupled at 0.2 mg per ml beads; sEng in input and flow-through by ELISA; residence time varied
[4] = target: T2, soluble Endoglin (sEng), recombinant, as spiked or purified protein (human); assay: depletion of sEng spiked in human plasma by a 1 ml column with varying amounts of covalently coupled antibody; sEng in input and flow-through by ELISA
[5] = target: T2, soluble Endoglin (sEng), recombinant, as spiked or purified protein (human); assay: sandwich ELISA, coated cENG10 (4 ug/mL), preformed Bmp9-sEng complex 0.02 to 20 nM, anti-Bmp9 detection
[6] = target: T2, soluble Endoglin (sEng), recombinant, as spiked or purified protein (human); assay: analytical size exclusion chromatography, Superdex 200, 1-2 uM proteins
[7] = target: T2, soluble Endoglin (sEng), recombinant, as spiked or purified protein (human); assay: ELISA, wells coated with 2 ug/ml sEng, anti-human Fc HRP detection
[8] = target: T2, soluble Endoglin (sEng), recombinant, as spiked or purified protein (human); assay: depletion of sEng spiked in horse serum (60 ng/ml, 10 ml) by a 1 ml column of antibody covalently coupled at 0.2 mg per ml beads; sEng in input and flow-through by ELISA; linear flow rate varied
[9] = target: T2, soluble Endoglin (sEng), recombinant, as spiked or purified protein (human); assay: SEC and ELISA
[10] = target: T2, soluble Endoglin (sEng), recombinant, as spiked or purified protein (human); assay: depletion of sEng spiked in serum (60 ng/ml, 10 ml) by a 1 ml column of antibody covalently coupled to CNBr-Sepharose 4FF at 0.2 mg per ml beads; sEng in input and flow-through by ELISA; volumetric flow rate varied
[11] = target: T2, soluble Endoglin (sEng), recombinant, as spiked or purified protein (human); assay: sandwich ELISA: cENG10 coated at 4 ug/mL, serial dilutions of preformed equimolar Bmp9/sEng complex, bound Bmp9 detected with biotinylated anti-Bmp9 antibody and an HRP conjugate
[12] = target: T2, soluble Endoglin (sEng), recombinant, as spiked or purified protein (human); assay: SEC and ELISA, summary of Example 8
[13] = target: T2, soluble Endoglin (sEng), recombinant, as spiked or purified protein (human); assay: ELISA: wells coated with 2 ug/ml sEng, serial dilutions of cENG10, detected with HRP-conjugated polyclonal anti-human IgG Fc
[14] = target: T2, soluble Endoglin (sEng), recombinant, as spiked or purified protein (human); assay: CNBr-Sepharose column depletion of sEng
[15] = target: T2, soluble Endoglin (sEng), recombinant, as spiked or purified protein (human); assay: Protein-G Sepharose column depletion at 1 or 0.2 mg antibody per ml beads

Measured: binding

B1: chimeric anti-sEng antibody cENG10 (antibody, human IgG1, kappa, N297Q, V domains shown)
VH: EVQLEQSGPEVVKPGTSVKISCKTSGYTITEHTLHWIKQNQGKSLEWIGGINFDNGGTTYRQKFKDKATLTVDKSSSTAFMELRSLTSDDSAVYFCARRAYYYGSAFDYWGQGTTLTVSS
VL: ENVLTQSPAIMSASLGEKVTMTCRASSSVNYVYWYQQKSDASPKLWIYYTSNLAPGVPARFSGSGSGNSYSLTISSMEGEDAATYYCQQFISFPYTFGGGTKLEIKR
notes: Murine MAb 210 variable regions on human IgG1 / kappa constant regions; also called αEng; cENG10 (CHO-derived)
not listed: [14] | [15]
binds: all other assays above

B2: MAb 210 (antibody, V domains shown)
VH: EVQLEQSGPEVVKPGTSVKISCKTSGYTITEHTLHWIKQNQGKSLEWIGGINFDNGGTTYRQKFKDKATLTVDKSSSTAFMELRSLTSDDSAVYFCARRAYYYGSAFDYWGQGTTLTVSS
VL: ENVLTQSPAIMSASLGEKVTMTCRASSSVNYVYWYQQKSDASPKLWIYYTSNLAPGVPARFSGSGSGNSYSLTISSMEGEDAATYYCQQFISFPYTFGGGTKLEIK
notes: Murine monoclonal antibody from hybridoma; also called lead antibody
binds: [14] | [15]
